# Source: the supplement of paper PMC8728848
# The list shows a part of the results.
# B1: MFG-E8 (Mus musculus), P21956 (protein)
# chain: MQVSRVLAALCGMLLCASGLFAASGDFCDSSLCLNGGTCLTGQDNDIYCLCPEGFTGLVCNETERGPCSPNPCYNDAKCLVTLDTQRGDIFTEYICQCPVGYSGIHCETETNYYNLDGEYMFTTAVPNTAVPTPAPTPDLSNNLASRCSTQLGMEGGAIADSQISASSVYMGFMGLQRWGPELARLYRTGIVNAWTASNYDSKPWIQVNLLRKMRVSGVMTQGASRAGRAEYLKTFKVAYSLDGRKFEFIQDESGGDKEFLGNLDNNSLKVNMFNPTLEAQYIKLYPVSCHRGCTLRFELLGCELHGCSEPLGLKNNTIPDSQMSASSSYKTWNLRAFGWYPHLGRLDNQGKINAWTAQSNSAKEWLQVDLGTQRQVTGIITQGARDFGHIQYVASYKVAHSDDGVQWTVYEEQGSSKVFQGNLDNNSHKKNIFEKPFMARYVRVLPVSWHNRITLRLELLGC
# How the values were obtained:
# Experiment in all cases: glycan array binding signal (z-score within array); higher = stronger binding
# Settings in all cases: glycan notation: IUPAC condensed, linker removed
# [1] = molecular target: Neu5Ac(a2-3)Gal(b1-4)GlcNAc(b1-2)[Neu5Ac(a2-3)Gal(b1-4)GlcNAc(b1-4)]Man(a1-3)[GlcNAc(b1-4)][Neu5Ac(a2-3)Gal(b1-4)GlcNAc(b1-2)[Neu5Ac(a2-3)Gal(b1-4)GlcNAc(b1-6)]Man(a1-6)]Man(b1-4)GlcNAc(b1-4)GlcNAc
# Summary of the method: (§1)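 The binding signal is a Z-score computed within each array and averaged over linkers. Arrays of the same protein sequence at different concentrations or buffers were also averaged together. Data originate from 3228 arrays in the Consortium for Functional Glycomics database, kept only where the protein sequence was available.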
# [2] = molecular target: Neu5Ac(a2-3)Gal(b1-4)GlcNAc(b1-2)[Neu5Ac(a2-3)Gal(b1-4)GlcNAc(b1-4)]Man(a1-3)[GlcNAc(b1-4)][Neu5Ac(a2-3)Gal(b1-4)GlcNAc(b1-4)Man(a1-6)]Man(b1-4)GlcNAc(b1-4)GlcNAc
# Summary of the method: as §1
# [3] = molecular target: Neu5Ac(a2-3)Gal(b1-4)GlcNAc(b1-2)[Neu5Ac(a2-3)Gal(b1-4)GlcNAc(b1-6)]Man(a1-6)[Neu5Ac(a2-3)Gal(b1-4)GlcNAc(b1-2)Man(a1-3)][GlcNAc(b1-4)]Man(b1-4)GlcNAc(b1-4)GlcNAc
# Summary of the method: as §1
# [4] = molecular target: Neu5Ac(a2-3)Gal(b1-4)GlcNAc(b1-3)Gal
# Summary of the method: as §1
# [5] = molecular target: Neu5Ac(a2-3)Gal(b1-4)GlcNAc(b1-3)Gal(b1-3)GlcNAc
# Summary of the method: as §1
# [6] = molecular target: Neu5Ac(a2-3)Gal(b1-4)GlcNAc(b1-3)Gal(b1-4)GlcNAc
# Summary of the method: as §1
# [7] = molecular target: Neu5Ac(a2-3)Gal(b1-4)GlcNAc(b1-3)Gal(b1-4)GlcNAc(b1-2)Man(a1-3)[Neu5Ac(a2-3)Gal(b1-4)GlcNAc(b1-3)Gal(b1-4)GlcNAc(b1-2)Man(a1-6)]Man(b1-4)GlcNAc(b1-4)GlcNAc
# Summary of the method: as §1
# [8] = molecular target: Neu5Ac(a2-3)Gal(b1-4)GlcNAc(b1-3)Gal(b1-4)GlcNAc(b1-3)Gal(b1-4)GlcNAc
# Summary of the method: as §1
# [9] = molecular target: Neu5Ac(a2-3)Gal(b1-4)GlcNAc(b1-3)Gal(b1-4)GlcNAc(b1-3)Gal(b1-4)GlcNAc(b1-2)Man(a1-3)[Neu5Ac(a2-3)Gal(b1-4)GlcNAc(b1-3)Gal(b1-4)GlcNAc(b1-3)Gal(b1-4)GlcNAc(b1-2)Man(a1-6)]GalNAc
# Summary of the method: as §1
# [10] = molecular target: Neu5Ac(a2-3)Gal(b1-4)GlcNAc(b1-3)Gal(b1-4)GlcNAc(b1-3)GalNAc
# Summary of the method: as §1
# [11] = molecular target: Neu5Ac(a2-3)Gal(b1-4)GlcNAc(b1-3)Gal(b1-4)GlcNAc(b1-3)[Neu5Ac(a2-3)Gal(b1-4)GlcNAc(b1-3)Gal(b1-4)GlcNAc(b1-6)]GalNAc
# Summary of the method: as §1
# [12] = molecular target: Neu5Ac(a2-3)Gal(b1-4)GlcNAc(b1-3)Gal(b1-4)GlcNAc(b1-6)[Gal(b1-3)]GalNAc
# Summary of the method: as §1
# [13] = molecular target: Neu5Ac(a2-3)Gal(b1-4)GlcNAc(b1-3)Gal(b1-4)[Fuc(a1-3)]GlcNAc
# Summary of the method: as §1
# [14] = molecular target: Neu5Ac(a2-3)Gal(b1-4)GlcNAc(b1-3)GalNAc
# Summary of the method: as §1
# [15] = molecular target: Neu5Ac(a2-3)Gal(b1-4)GlcNAc(b1-3)[Neu5Ac(a2-3)Gal(b1-4)GlcNAc(b1-6)]GalNAc
# Summary of the method: as §1
# [16] = molecular target: Neu5Ac(a2-3)Gal(b1-4)GlcNAc(b1-6)GalNAc
# Summary of the method: as §1
# [17] = molecular target: Neu5Ac(a2-3)Gal(b1-4)GlcNAc(b1-6)[Gal(b1-3)]GalNAc
# Summary of the method: as §1
# [18] = molecular target: Neu5Ac(a2-3)Gal(b1-4)GlcNAc(b1-6)[Neu5Ac(a2-3)Gal(b1-3)]GalNAc
# Summary of the method: as §1
# [19] = molecular target: Neu5Ac(a2-3)Gal(b1-4)GlcNAc6S
# Summary of the method: as §1
# [20] = molecular target: Neu5Ac(a2-3)Gal(b1-4)[Fuc(a1-3)]GlcNAc
# Summary of the method: as §1
# [21] = molecular target: Neu5Ac(a2-3)Gal(b1-4)[Fuc(a1-3)]GlcNAc(b1-2)Man
# Summary of the method: as §1
# [22] = molecular target: Neu5Ac(a2-3)Gal(b1-4)[Fuc(a1-3)]GlcNAc(b1-3)Gal
# Summary of the method: as §1
# [23] = molecular target: Neu5Ac(a2-3)Gal(b1-4)[Fuc(a1-3)]GlcNAc(b1-3)Gal(b1-4)GlcNAc
# Summary of the method: as §1
# [24] = molecular target: Neu5Ac(a2-3)Gal(b1-4)[Fuc(a1-3)]GlcNAc(b1-3)Gal(b1-4)[Fuc(a1-3)]GlcNAc(b1-3)Gal(b1-4)[Fuc(a1-3)]GlcNAc
# Summary of the method: as §1
# [25] = molecular target: Neu5Ac(a2-3)Gal(b1-4)[Fuc(a1-3)]GlcNAc(b1-3)GalNAc
# Summary of the method: as §1
# [26] = molecular target: Neu5Ac(a2-3)Gal(b1-4)[Fuc(a1-3)]GlcNAc(b1-6)[Gal(b1-3)]GalNAc
# Summary of the method: as §1
# [27] = molecular target: Neu5Ac(a2-3)Gal(b1-4)[Fuc(a1-3)]GlcNAc(b1-6)[Neu5Ac(a2-3)Gal(b1-3)]GalNAc
# Summary of the method: as §1
# [28] = molecular target: Neu5Ac(a2-3)Gal(b1-4)[Fuc(a1-3)]GlcNAc6S
# Summary of the method: as §1
# [29] = molecular target: Neu5Ac(a2-3)Gal6S(b1-4)GlcNAc
# Summary of the method: as §1
# [30] = molecular target: Neu5Ac(a2-3)Gal6S(b1-4)[Fuc(a1-3)]GlcNAc
# Summary of the method: as §1
# Neu5Ac(a2-3)GalNAc = molecular target: Neu5Ac(a2-3)GalNAc
# Summary of the method: as §1
# [31] = molecular target: Neu5Ac(a2-3)GalNAc(b1-4)GlcNAc
# Summary of the method: as §1
# [32] = molecular target: Neu5Ac(a2-3)[GalNAc(b1-4)]Gal(b1-4)Glc
# Summary of the method: as §1
# [33] = molecular target: Neu5Ac(a2-3)[GalNAc(b1-4)]Gal(b1-4)GlcNAc
# Summary of the method: as §1
# [34] = molecular target: Neu5Ac(a2-3)[GalNAc(b1-4)]Gal(b1-4)GlcNAc(b1-3)GalNAc
# Summary of the method: as §1
# [35] = molecular target: Neu5Ac(a2-3)[Neu5Ac(a2-6)]GalNAc
# Summary of the method: as §1
binder,measurement,setting,value
B1,glycan array binding signal (z-score),[1],-0.599
same,glycan array binding signal (z-score),[2],0.066
same,glycan array binding signal (z-score),[3],-0.314
same,glycan array binding signal (z-score),[4],0.469
same,glycan array binding signal (z-score),[5],-0.099
same,glycan array binding signal (z-score),[6],-0.548
same,glycan array binding signal (z-score),[7],-0.011
same,glycan array binding signal (z-score),[8],0.201
same,glycan array binding signal (z-score),[9],0.779
same,glycan array binding signal (z-score),[10],0.014
same,glycan array binding signal (z-score),[11],-0.512
same,glycan array binding signal (z-score),[12],-0.309
same,glycan array binding signal (z-score),[13],1.23
same,glycan array binding signal (z-score),[14],-0.271
same,glycan array binding signal (z-score),[15],-0.348
same,glycan array binding signal (z-score),[16],0.917
same,glycan array binding signal (z-score),[17],-0.065
same,glycan array binding signal (z-score),[18],-0.655
same,glycan array binding signal (z-score),[19],-0.285
same,glycan array binding signal (z-score),[20],-0.186
same,glycan array binding signal (z-score),[21],0.327
same,glycan array binding signal (z-score),[22],-0.581
same,glycan array binding signal (z-score),[23],0.264
same,glycan array binding signal (z-score),[24],-0.238
same,glycan array binding signal (z-score),[25],-0.277
same,glycan array binding signal (z-score),[26],0.678
same,glycan array binding signal (z-score),[27],0.094
same,glycan array binding signal (z-score),[28],-0.386
same,glycan array binding signal (z-score),[29],0.038
same,glycan array binding signal (z-score),[30],0.373
same,glycan array binding signal (z-score),Neu5Ac(a2-3)GalNAc,-0.34
same,glycan array binding signal (z-score),[31],-0.729
same,glycan array binding signal (z-score),[32],-1.07
same,glycan array binding signal (z-score),[33],-0.167
same,glycan array binding signal (z-score),[34],0.127
same,glycan array binding signal (z-score),[35],-0.775

# Two records drawn at random from the list so far, as already listed:
binder,measurement,setting,value
B1,glycan array binding signal (z-score),[31],-0.729
same,glycan array binding signal (z-score),[16],0.917
